The values below come from publication PMC6873818.

The chains behind the UniProt entries cited, without tags or fusion partners.
UniProt Q7Z460: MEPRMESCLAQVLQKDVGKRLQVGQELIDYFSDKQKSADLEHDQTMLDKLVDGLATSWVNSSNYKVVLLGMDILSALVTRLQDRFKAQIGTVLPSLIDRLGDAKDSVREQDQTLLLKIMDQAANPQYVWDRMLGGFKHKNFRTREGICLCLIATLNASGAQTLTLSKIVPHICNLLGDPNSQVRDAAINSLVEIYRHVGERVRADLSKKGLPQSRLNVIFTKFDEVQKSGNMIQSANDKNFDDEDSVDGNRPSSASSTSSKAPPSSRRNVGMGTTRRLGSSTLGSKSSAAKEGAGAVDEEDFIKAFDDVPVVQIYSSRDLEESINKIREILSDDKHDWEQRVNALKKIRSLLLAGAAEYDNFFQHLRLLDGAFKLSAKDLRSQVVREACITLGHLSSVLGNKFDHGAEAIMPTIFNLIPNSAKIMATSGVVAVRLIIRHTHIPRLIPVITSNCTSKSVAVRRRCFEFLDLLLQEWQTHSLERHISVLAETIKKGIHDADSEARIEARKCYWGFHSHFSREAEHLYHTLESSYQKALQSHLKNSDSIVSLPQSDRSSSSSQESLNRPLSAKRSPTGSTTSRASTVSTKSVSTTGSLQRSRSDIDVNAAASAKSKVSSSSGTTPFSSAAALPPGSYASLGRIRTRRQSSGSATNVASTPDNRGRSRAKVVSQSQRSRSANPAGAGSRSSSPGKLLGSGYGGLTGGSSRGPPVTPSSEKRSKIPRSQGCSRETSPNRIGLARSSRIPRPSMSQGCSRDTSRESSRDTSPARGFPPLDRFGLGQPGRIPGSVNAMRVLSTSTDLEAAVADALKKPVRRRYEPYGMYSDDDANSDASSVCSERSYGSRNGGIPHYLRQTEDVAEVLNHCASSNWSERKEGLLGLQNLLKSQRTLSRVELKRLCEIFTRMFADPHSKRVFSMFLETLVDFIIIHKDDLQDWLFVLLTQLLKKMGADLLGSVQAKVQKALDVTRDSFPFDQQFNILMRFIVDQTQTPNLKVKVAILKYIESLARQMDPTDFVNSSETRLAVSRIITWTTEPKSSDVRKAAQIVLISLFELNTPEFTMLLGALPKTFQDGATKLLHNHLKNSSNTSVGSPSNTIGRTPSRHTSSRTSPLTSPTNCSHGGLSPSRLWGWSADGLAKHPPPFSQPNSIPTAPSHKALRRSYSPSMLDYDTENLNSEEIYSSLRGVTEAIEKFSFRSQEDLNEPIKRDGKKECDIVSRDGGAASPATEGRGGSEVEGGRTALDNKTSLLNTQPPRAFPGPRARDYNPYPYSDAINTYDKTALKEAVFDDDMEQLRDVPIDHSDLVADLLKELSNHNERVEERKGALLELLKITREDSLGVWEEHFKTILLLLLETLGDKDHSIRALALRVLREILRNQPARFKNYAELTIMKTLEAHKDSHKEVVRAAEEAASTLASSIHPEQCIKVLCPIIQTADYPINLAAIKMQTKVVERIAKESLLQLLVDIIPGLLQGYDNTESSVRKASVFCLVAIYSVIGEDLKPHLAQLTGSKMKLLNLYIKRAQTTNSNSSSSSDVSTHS
UniProt O00165: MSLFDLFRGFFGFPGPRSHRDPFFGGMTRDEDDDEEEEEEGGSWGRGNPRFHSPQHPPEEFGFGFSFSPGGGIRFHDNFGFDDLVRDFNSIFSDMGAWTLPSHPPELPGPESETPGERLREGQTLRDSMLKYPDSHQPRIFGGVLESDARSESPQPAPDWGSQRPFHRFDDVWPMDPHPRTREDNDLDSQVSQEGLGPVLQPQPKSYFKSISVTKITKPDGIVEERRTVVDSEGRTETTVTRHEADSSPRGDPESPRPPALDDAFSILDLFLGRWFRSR

Results are given in words; binding and its absence hold for the method and conditions named. Some entries that bind do so weakly or less than the wild type.

The target of assay [1] is T1, SLC25A5 (human (endogenous in HEK293T)) (UniProt P05141).
T1 sequence: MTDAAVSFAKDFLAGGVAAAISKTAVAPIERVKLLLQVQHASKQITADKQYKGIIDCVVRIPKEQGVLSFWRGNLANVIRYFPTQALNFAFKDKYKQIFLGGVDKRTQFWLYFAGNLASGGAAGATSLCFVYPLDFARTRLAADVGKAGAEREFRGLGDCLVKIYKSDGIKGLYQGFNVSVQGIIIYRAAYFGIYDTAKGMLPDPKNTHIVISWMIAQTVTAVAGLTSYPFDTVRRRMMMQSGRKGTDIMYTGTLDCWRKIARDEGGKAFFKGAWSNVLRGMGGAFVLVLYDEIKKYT
As to the kind of experiment: SEC; DIF-FRAC control sample (co-fractionation mass spectrometry): clarified HEK293T lysate without RNase A, native SEC on BioSep-SEC-s4000 in PBS pH 7.2, 50 fractions, proteins of each fraction identified by LC-MS/MS; co-elution of elution profiles.

Assay [2] deals with T1, SLC25A5 (human (endogenous in HEK293T)). As to the kind of experiment: SEC; DIF-FRAC RNase A-treated sample (co-fractionation mass spectrometry): clarified HEK293T lysate with RNase A (80 ug, 30 min, room temperature), native SEC on BioSep-SEC-s4000 in PBS pH 7.2, 50 fractions, proteins of each fraction identified by LC-MS/MS; co-elution of elution profiles.
Assay [3] has as its target T2, Racgap1 (mouse (endogenous in J1 ES cells)) (UniProt Q9WVM1).
T2 sequence: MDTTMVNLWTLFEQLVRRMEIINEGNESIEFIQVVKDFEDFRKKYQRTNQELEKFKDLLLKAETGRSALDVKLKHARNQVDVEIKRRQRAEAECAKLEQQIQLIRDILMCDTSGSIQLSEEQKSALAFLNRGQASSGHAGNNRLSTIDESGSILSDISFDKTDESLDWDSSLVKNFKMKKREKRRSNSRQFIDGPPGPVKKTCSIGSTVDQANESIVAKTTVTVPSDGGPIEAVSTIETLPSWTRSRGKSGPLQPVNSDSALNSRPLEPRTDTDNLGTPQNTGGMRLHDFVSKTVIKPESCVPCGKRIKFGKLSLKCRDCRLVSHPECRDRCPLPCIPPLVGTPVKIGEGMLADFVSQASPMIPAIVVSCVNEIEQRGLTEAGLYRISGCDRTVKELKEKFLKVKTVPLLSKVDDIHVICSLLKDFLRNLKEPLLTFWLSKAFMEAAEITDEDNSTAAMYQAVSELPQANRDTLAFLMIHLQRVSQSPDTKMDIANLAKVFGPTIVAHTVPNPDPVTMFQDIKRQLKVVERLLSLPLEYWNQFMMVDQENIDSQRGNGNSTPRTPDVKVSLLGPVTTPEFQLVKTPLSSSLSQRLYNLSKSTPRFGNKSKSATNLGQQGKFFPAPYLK
Description: SEC; DIF-FRAC control sample: mouse J1 ES cell lysate without RNase A, native SEC on BioSep-SEC-s4000 in PBS pH 7.2, fractions by LC-MS/MS; co-elution of elution profiles.

Assay [4] concerns the target CLASP1 (human (endogenous in HEK293T)) (UniProt Q7Z460). Description: SEC; DIF-FRAC RNase A-treated sample (co-fractionation mass spectrometry): clarified HEK293T lysate with RNase A (80 ug, 30 min, room temperature), native SEC on BioSep-SEC-s4000 in PBS pH 7.2, 50 fractions, proteins of each fraction identified by LC-MS/MS; co-elution of elution profiles.
For assay [5] the target is unchanged. Description: SEC; DIF-FRAC control sample (co-fractionation mass spectrometry): clarified HEK293T lysate without RNase A, native SEC on BioSep-SEC-s4000 in PBS pH 7.2, 50 fractions, proteins of each fraction identified by LC-MS/MS; co-elution of elution profiles.
For assay [6], the target named is T3, DRG1 (human (endogenous in HEK293T)) (UniProt Q9Y295).
T3 sequence: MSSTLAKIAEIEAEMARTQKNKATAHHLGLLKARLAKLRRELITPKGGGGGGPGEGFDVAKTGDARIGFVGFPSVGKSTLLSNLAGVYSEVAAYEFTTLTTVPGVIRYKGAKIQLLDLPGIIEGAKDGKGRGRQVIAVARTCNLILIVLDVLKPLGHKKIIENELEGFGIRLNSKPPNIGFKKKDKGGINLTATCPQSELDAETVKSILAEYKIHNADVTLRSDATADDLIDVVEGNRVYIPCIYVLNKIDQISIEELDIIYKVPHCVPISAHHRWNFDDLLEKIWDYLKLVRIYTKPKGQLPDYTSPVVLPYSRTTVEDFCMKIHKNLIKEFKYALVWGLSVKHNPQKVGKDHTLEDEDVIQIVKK
As to the kind of experiment: SEC; DIF-FRAC RNase A-treated sample (co-fractionation mass spectrometry): clarified HEK293T lysate with RNase A (80 ug, 30 min, room temperature), native SEC on BioSep-SEC-s4000 in PBS pH 7.2, 50 fractions, proteins of each fraction identified by LC-MS/MS; co-elution of elution profiles.

Assay [7] addresses T3, DRG1 (human (endogenous in HEK293T)). As to the kind of experiment: SEC; DIF-FRAC control sample (co-fractionation mass spectrometry): clarified HEK293T lysate without RNase A, native SEC on BioSep-SEC-s4000 in PBS pH 7.2, 50 fractions, proteins of each fraction identified by LC-MS/MS; co-elution of elution profiles.

With HAX1 (from UniProt O00165 1-279), the binding entry in assay [1] and in assay [2] was “binds” throughout.

B1: Kif23 (protein, UniProt E9Q5G3 1-953)
chain: MKSAKAKTVRKPVIKKGSQTNLKDPVGVYCRVRPLSFPDQECCVEVINSTTLQLHTPEGYRLNRNGDYKETQYSFKRVFGTHTTQKELFDVVANPLVDDLIHGKNGLLFTYGVTGSGKTYTMTGSPGSGGLLPRCLNMIFNSIGSFQAKRYVFKSNDRNSMEIQCEVDALLERQKREALPIPKTPSSKRQADPEFADMINVQEFCKAEEVDEDSVYGVFVSYIEIYNNYIYDLLEEVQFDPIKPKLPQSKTLREDKNHNMYVAGCTEVEVKSTEEAFEVFWRGQKKRRIANTHLNRESSRSHSVFSIKLVQAPLDADGDNVLQEKEQITISQLSLVDLAGSERTNRTKAEGNRLREAGNINQSLMTLRTCMEVLRENQTYGTNKMVPYRDSKLTHLFKNYFDGEGKVRMIVCVNPKAEDYEESLQVMRFAEVTQEVEVARPVDKVICGLTPGRRYRNLPRGGPVGDEPLVPEVILQSFPPLPPCKLLDINDEETLPKLADTLEKRHHLRQLMTEDLNKKCLAFKALLKEFDNSLSNKENYVQEKLNEREKVISGQKLEIERLEKKNKTLEYKIEILEKTTTIYEEDKRNLQQELESQNQKLQRQFSDKRRLEARLQGMVTETSMKWQKECERRVAATQLEMQNKLWVKDEKLKQLKAIVTEPKPEKPERPSRERDREKIIPRSVSPSPLPLSSNNIAQISNGQQLMSQPQLHRRSNSCSSISVASCISEWEQKLSPFSTPVNVTSLARHRQQEPGQSKTCIVSDRRRGMCWTEGREMVPTFSSEIGVEEDHCRRNTPIPVRHRRSRSAGSRWVDHKPASNVQTETVMQPHVPHAITVSVANEKALAKCEKYMLTHQELASDGEIQTKVIKGDVYKTRGGGQSVQFTDIETLKQELPTGSRKRRSSTLAPAQPDGTESEWTDVETRCSVAVEMRAGSQLGPGYQHHAQPKRKKP
For the molecule B1, the binding result in assay [3] is on record as “binds”.

B2: CLASP2 (protein, UniProt O75122 1-1294)
chain: MAMGDDKSFDDEESVDGNRPSSAASAFKVPAPKTSGNPANSARKPGSAGGPKVGGASKEGGAGAVDEDDFIKAFTDVPSIQIYSSRELEETLNKIREILSDDKHDWDQRANALKKIRSLLVAGAAQYDCFFQHLRLLDGALKLSAKDLRSQVVREACITVAHLSTVLGNKFDHGAEAIVPTLFNLVPNSAKVMATSGCAAIRFIIRHTHVPRLIPLITSNCTSKSVPVRRRSFEFLDLLLQEWQTHSLERHAAVLVETIKKGIHDADAEARVEARKTYMGLRNHFPGEAETLYNSLEPSYQKSLQTYLKSSGSVASLPQSDRSSSSSQESLNRPFSSKWSTANPSTVAGRVSAGSSKASSLPGSLQRSRSDIDVNAAAGAKAHHAAGQSVRSGRLGAGALNAGSYASLEDTSDKLDGTASEDGRVRAKLSAPLAGMGNAKADSRGRSRTKMVSQSQPGSRSGSPGRVLTTTALSTVSSGVQRVLVNSASAQKRSKIPRSQGCSREASPSRLSVARSSRIPRPSVSQGCSREASRESSRDTSPVRSFQPLASRHHSRSTGALYAPEVYGASGPGYGISQSSRLSSSVSAMRVLNTGSDVEEAVADALKKPARRRYESYGMHSDDDANSDASSACSERSYSSRNGSIPTYMRQTEDVAEVLNRCASSNWSERKEGLLGLQNLLKNQRTLSRVELKRLCEIFTRMFADPHGKRVFSMFLETLVDFIQVHKDDLQDWLFVLLTQLLKKMGADLLGSVQAKVQKALDVTRESFPNDLQFNILMRFTVDQTQTPSLKVKVAILKYIETLAKQMDPGDFINSSETRLAVSRVITWTTEPKSSDVRKAAQSVLISLFELNTPEFTMLLGALPKTFQDGATKLLHNHLRNTGNGTQSSMGSPLTRPTPRSPANWSSPLTSPTNTSQNTLSPSAFDYDTENMNSEDIYSSLRGVTEAIQNFSFRSQEDMNEPLKRDSKKDDGDSMCGGPGMSDPRAGGDATDSSQTALDNKASLLHSMPTHSSPRSRDYNPYNYSDSISPFNKSALKEAMFDDDADQFPDDLSLDHSDLVAELLKELSNHNERVEERKIALYELMKLTQEESFSVWDEHFKTILLLLLETLGDKEPTIRALALKVLREILRHQPARFKNYAELTVMKTLEAHKDPHKEVVRSAEEAASVLATSISPEQCIKVLCPIIQTADYPINLAAIKMQTKVIERVSKETLNLLLPEIMPGLIQGYDNSESSVRKACVFCLVAVHAVIGDELKPHLSQLTGSKMKLLNLYIKRAQTGSGGADPTTDVSGQS
As for B2, the binding entry in assay [4] and in assay [5] was “binds” throughout.

B3: LRRC41 (protein, UniProt Q15345 1-812)
chain: MAAPEAWRARSCWFCEVAAATTMEATSREAAPAKSSASGPNAPPALFELCGRAVSAHMGVLESGVWALPGPILQSILPLLNIYYLERIEETALKKGLSTQAIWRRLWDELMKTRPSSLESVTCWRAKFMEAFFSHVLRGTIDVSSDRRLCDQRFSPLLHSSRHVRQLTICNMLQGATELVAEPNRRVLETLASSLHTLKFRHLLFSDVAAQQSLRQLLHQLIHHGAVSQVSLYSWPVPESALFILILTMSAGFWQPGPGGPPCRLCGEASRGRAPSRDEGSLLLGSRRPRRDAAERCAAALMASRRKSEAKQMPRAAPATRVTRRSTQESLTAGGTDLKRELHPPATSHEAPGTKRSPSAPAATSSASSSTSSYKRAPASSAPQPKPLKRFKRAAGKKGARTRQGPGAESEDLYDFVFIVAGEKEDGEEMEIGEVACGALDGSDPSCLGLPALEASQRFRSISTLELFTVPLSTEAALTLCHLLSSWVSLESLTLSYNGLGSNIFRLLDSLRALSGQAGCRLRALHLSDLFSPLPILELTRAIVRALPLLRVLSIRVDHPSQRDNPGVPGNAGPPSHIIGDEEIPENCLEQLEMGFPRGAQPAPLLCSVLKASGSLQQLSLDSATFASPQDFGLVLQTLKEYNLALKRLSFHDMNLADCQSEVLFLLQNLTLQEITFSFCRLFEKRPAQFLPEMVAAMKGNSTLKGLRLPGNRLGNAGLLALADVFSEDSSSSLCQLDISSNCIKPDGLLEFAKRLERWGRGAFGHLRLFQNWLDQDAVTAREAIRRLRATCHVVSDSWDSSQAFADYVSTM
On to B3, for which the binding entry in assay [6] is “binds”; in assay [7], “no binding (condition: control lysate, RNA not degraded)”.
